107 sequences from PubChem BioAssay AID1347426 (Functional Genomics Laboratory (NCATS/FGL), 2020) can be followed below.

Out of some 31,000 sequences screened, about 1,400 (4.5%) were called active.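 How the source made its calls: active means median seed-adjusted z-score above 1 or below -1; inactive means the rest.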 This is one part of the list.

This test in a line: Novel Modifiers of Survival Motor Neuron (SMN) Protein: Gene Identification via Genome-wide siRNA Screen.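 Further: luminescence tracks full-length SMN protein made from the SMN2 reporter.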 Conditions: HEK293T SMN2-luciferase reporter, siRNA knockdown, 72 h; actives lie on both sides. An outline of the steps: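 Genome-wide siRNA screen (10418 genes, 3 siRNAs each, 1 pmol per well) by reverse transfection in HEK293T cells stably carrying an SMN2-luciferase reporter; luminescence after 72 hours, normalized to negative-control siRNA, log10-transformed, MAD-scored.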
Background: A reporter such as luciferase makes a cellular process visible.
In the case of GGCAACAAGUCAAGGAUAATT against PSPH, the median seed-adjusted z-score was inactive: -0.518. Turning to GGAUGAUCGUCAUUGGUCUTT against DDX23, the median seed-adjusted z-score is inactive: -0.468. As to GUCAUUUUCUGGAUUAAUUTT against P2RY12, the median seed-adjusted z-score is inactive: 0.143.

On to GGUCUACAGGCUAUCGAUATT against ARL10, for which the median seed-adjusted z-score was inactive: -0.455. For the sequence AGCACAAGCGGGAGAUUUATT against DNAJB2, the median seed-adjusted z-score is inactive: 0. Regarding GCUUCAACCAUUGACAGUUTT against FCGR2A, the median seed-adjusted z-score was inactive: -0.19. In the case of GGACCUCUUCUACACGGAATT against RASGRP4, the median seed-adjusted z-score is inactive: 0.162.

As for GAGUGUGAGUUCUACUUCATT against PLOD3, the median seed-adjusted z-score is inactive: -0.258. In the case of GAAAUCUACUCUAAAACCATT against RFC2, the median seed-adjusted z-score is inactive: 0.00126. Regarding GGAAAGUUUUUAAGGCGAATT against UHRF2, the median seed-adjusted z-score was inactive: -0.0941. In the case of GCAGCUCUGUGCGAAUGUUTT against FBLN5, the median seed-adjusted z-score was inactive: -0.0832. Regarding GGAACAGCGCAGUACGUUUTT against PDPK1, the median seed-adjusted z-score was inactive: 0.0807.

Regarding UCUUUUAUCUGUUCCUCCATT against OGG1, the median seed-adjusted z-score is inactive: -0.128. Regarding GGAGGAAUGUCGUCCUGAUTT against SCD5, the median seed-adjusted z-score is inactive: -0.167. As to GAAAGAUGUUGGGAAUAAATT against ST6GAL2, the median seed-adjusted z-score is inactive: 0.054. The value for CUGUUGGUAUUGUCCACAATT against MAL was inactive: 0.0733; that for GGAGUCAGCAUCUACCUAATT against SLC22A6 was inactive: 0.135; that for GCGCAGCUCUGGAAUUUGATT against OXCT2 was inactive: -0.449.

Take GUCCAAGCCUUAAACAUCATT against IDS: the median seed-adjusted z-score is inactive: -0.074. CUACGUCUCUUAUCGUCGATT against SORCS2: the median seed-adjusted z-score is inactive: 0.648.

In the case of AGUACUACCUGGACCUCAATT against PURB, the median seed-adjusted z-score was inactive: 0. For GGCUAGAGCUAAGAGUGAATT against NAB1, the median seed-adjusted z-score is inactive: -0.67.

For the sequence GCCUUGAACCUAGGACCAATT against PRAF2, the median seed-adjusted z-score was inactive: -0.326. For the sequence CUAGAUAUCGUGGACCUCATT against PYDC1, the median seed-adjusted z-score was active: -1.44. With AUGUUAGCUUUGAAACAAATT against AMD1, the median seed-adjusted z-score was inactive: -0.211. Consider CCUACUAUCAAGAUUCAAATT against HERC3, for which the median seed-adjusted z-score was inactive: -0.0884.

In the case of GCUCGUGGAUUGUUGGGAATT against MFSD8, the median seed-adjusted z-score is inactive: -0.461.

Take GCACUGUCACUAAGCAGAATT against CHEK2: the median seed-adjusted z-score was inactive: 0.585. With GCUCUGACUUUGGACCUCATT against KRTAP5-6, the median seed-adjusted z-score is inactive: 0.185. Take GGACCUCAGACUGAAUCAATT against GABRE: the median seed-adjusted z-score is inactive: 0.211.

Regarding GCUUCUAAAUGUGAGACGATT against GCNT4, the median seed-adjusted z-score was inactive: -0.0629. Regarding CGGUGACUAUGAAAGAAAUTT against RASL11B, the median seed-adjusted z-score was inactive: 0.507. For the sequence GGAUACCAGAUGGAUGAAATT against FBLN5, the median seed-adjusted z-score is inactive: -0.0832. For AACUGCUGCUCGCAAGGAATT against MLNR, the median seed-adjusted z-score was inactive: -0.038.

In the case of GAUCAACUGUGGAAAUAUUTT against KISS1R, the median seed-adjusted z-score was inactive: -0.299.

CCUCAGUACCACGCAGAAATT against APOBEC3B: the median seed-adjusted z-score was inactive: 0. Under GCAAGAUCGUGACUUCGGATT against COL17A1 stands inactive: 0.252; under ACCUCCUCCUGAUCGAUGATT against ZNF524, inactive: 0.00173. Take GCUGCACAAUGGUGUGAAATT against MED16: the median seed-adjusted z-score was inactive: -0.6. In the case of GAGGUAAUCUGGGUGCACATT against PARK7, the median seed-adjusted z-score is inactive: -0.357. The value for ACAGUGCUUCGAUGACUUUTT against TNFRSF10B was inactive: 0.064; that for GGACUUUAAUGGAGGAGGUTT against KCNK6 was inactive: -0.199. On to CGAGCUUUUAUUAACGGAATT against LRP1B, for which the median seed-adjusted z-score is inactive: -0.0589. As to GUUACAACCAAACAGCAUATT against CD244, the median seed-adjusted z-score was inactive: 0. CAUCGAGCCUUGAAGGGUATT against ANXA3: the median seed-adjusted z-score is inactive: -0.156. On to CGGUCAUGUUUGCUAUGUATT against ARL6IP2, for which the median seed-adjusted z-score was inactive: 0.274. The value for GAGAUUAUAUCAUACGAGATT against HCN1 was inactive: -0.107; that for GGUUACCAGGUUACAAUGATT against OTC was inactive: 0.496; that for CUUAAGAUCCCACACCUCATT against SLC39A4 was inactive: 0.0304.

On to GCUUUCGUCUGGAACCUGATT against ANGPTL1, for which the median seed-adjusted z-score is inactive: -0.556. Turning to GCCUCACAGUUUUUCGAGATT against CALB1, the median seed-adjusted z-score was inactive: 0.191. Under GUGUAGACAUAGUCUAAAATT against ZNF532 stands inactive: -0.0289. Turning to AGUUCGGGCUUAUGAAGAATT against TUSC4, the median seed-adjusted z-score is inactive: 0.312. Consider GGACAUCGGCUUUGAAGAUTT against PLA2G15, for which the median seed-adjusted z-score is inactive: 0. On to GCUAUCAUCUUGCUCCCGATT against BDP1, for which the median seed-adjusted z-score is inactive: -0.0359. As to CAAUCUAUAUAUCCCGAAUTT against LIN7C, the median seed-adjusted z-score was inactive: 0.021. As for CCUCGAGACUAUACGGUUATT against MED26, the median seed-adjusted z-score is active: -1.86. As to GUAUCCAUGUGCAUUUUAATT against NT5E, the median seed-adjusted z-score was inactive: 0.199. Turning to CCUACAAGGUGAACCCAGATT against SHMT1, the median seed-adjusted z-score was inactive: 0.179. As for GGAAAUUUGGAAACCGGAUTT against POMT2, the median seed-adjusted z-score is inactive: -0.614. Turning to AGGUCAGGAUCGCAGUGAATT against DAB1, the median seed-adjusted z-score was inactive: 0.307. Under GGACUACUACAGCGACUAUTT against ZNF598 stands inactive: -0.303; under GCCCAUUCAGAGAUCCUCATT against STX5, inactive: 0.108. Regarding CAGUACAGGUAUACCCGAATT against CDO1, the median seed-adjusted z-score was inactive: 0.336.

As for GGAUGACUACGGUGAAUUUTT against RNF216, the median seed-adjusted z-score was inactive: -0.246. As to GGUUGUAGACAUAAUCCAATT against SERPINA9, the median seed-adjusted z-score was inactive: 0.497. With CAACCCUUGUCAUCAAACATT against POLE2, the median seed-adjusted z-score is inactive: -0.584. Turning to GCAGAAAGGUCUGAACAGATT against SLC22A7, the median seed-adjusted z-score is inactive: -0.387. Consider CAGGGACAUUUGAAGUGCATT against ILF2, for which the median seed-adjusted z-score was inactive: -0.19. As for GGAUCCUGCUCAAUAAUGATT against GGTLC1, the median seed-adjusted z-score was inactive: -0.298.

Take GAGCAAUUGAUACCCAAAATT against PFKP: the median seed-adjusted z-score is inactive: -0.352. Take GAAUUGAACCAAGUUUGUATT against BACE2: the median seed-adjusted z-score is inactive: 0.0853. As for GCAGAGUACCGGAACAAUUTT against KLKB1, the median seed-adjusted z-score was inactive: -0.256. Consider GGACGGGAGUUUAAAAUUATT against APIP, for which the median seed-adjusted z-score is inactive: -0.0945. Under CACUUACGGUGUGAAAGGATT against SOX5 stands inactive: 0.123; under CAACCUUAGAGAGAGGAAATT against KCNE4, inactive: 0.0795; under GGUUGUCAUUAACAACAGUTT against DLST, active: 1.16. Consider AAAUGUUCACUGCAGGUAUTT against ECH1, for which the median seed-adjusted z-score was inactive: 0.0348. Regarding GCUUCUAAUAUGUACCUGUTT against GSX1, the median seed-adjusted z-score is inactive: 0.677. Consider GGGUCAAGAGCAUAAGGAUTT against PROK2, for which the median seed-adjusted z-score was inactive: -0.00826. For CAACUGGAAAAUUACGUAATT against POLB, the median seed-adjusted z-score is inactive: 0.376. Turning to GUGUCGCUGUGGUAUUAGATT against CNOT6L, the median seed-adjusted z-score is inactive: -0.0259. In the case of CAUAUGAUCCUGAAGCAUATT against ZNF639, the median seed-adjusted z-score was inactive: 0.182.

As for CCAACGACCAAGUCACCAATT against IDH1, the median seed-adjusted z-score is inactive: 0.421. Consider GCUACUAAAAGAUCAAGUUTT against EXOSC9, for which the median seed-adjusted z-score is inactive: -0.00796. In the case of GGUCAUGAUUGCUAUCCUUTT against TAAR9, the median seed-adjusted z-score was active: -1.07. Turning to CAUUGGUUUUGAUGAGUAUTT against SNRPE, the median seed-adjusted z-score was active: -2.77. With GGAUUCAGGCAAUACUGAUTT against HMGCS2, the median seed-adjusted z-score was inactive: -0.465. The value for CAGGCUUUAUGAUCUAUAUTT against COQ5 was inactive: -0.0292; that for GGAUCGUGUUUAUGGUGAATT against DPM1 was inactive: -0.214; that for GGAAAGUACAUGUCUUCUATT against TNFRSF11A was inactive: -0.0833. The value for GUACCGGCAUGUUAUGUUATT against CKS2 was inactive: 0.0907; that for GAUCCUAUCGUAGACAUGATT against ZNF440 was inactive: 0.208; that for GGCUAGUUACAAUUCUUGATT against XRCC2 was inactive: 0. With GAGAGAUACUCGCAGGCAATT against STX10, the median seed-adjusted z-score was inactive: 0.772.

With CGUGGAUUCUUACGGAAGATT against CIT, the median seed-adjusted z-score was inactive: -0.0585. As for GGAAUGCAUGGAAAACUUUTT against A4GNT, the median seed-adjusted z-score was inactive: 0.213. The value for GCACAAUAUAGGCUAAUGATT against TEKT1 was inactive: 0.222; that for CCAGCGUACUCCAAAGAUUTT against B2M was inactive: -0.367; that for CCUGCGCCUGUAUAACUAUTT against AURKC was inactive: -0.0275. On to GUUCUUGUCUAAGACAUGATT against ZNF799, for which the median seed-adjusted z-score was active: -1.02. Consider GGUUUAAUAAGCUAGCAGATT against CDH10, for which the median seed-adjusted z-score was inactive: 0. Regarding GACUGUUAUUGGUGAGAGATT against CYP19A1, the median seed-adjusted z-score is inactive: -0.321. In the case of GUGGAAUUAUUAAGGUGAATT against SPINK5L2, the median seed-adjusted z-score was inactive: 0.482. As for CCCUUUUCGUGGUCUAUGATT against LCMT2, the median seed-adjusted z-score was inactive: -0.0205. Take CCAUCGUCAUGGUUACCAATT against PTPRA: the median seed-adjusted z-score is inactive: -0.438. As to GGACCAAGUUAGAACCGGATT against SETX, the median seed-adjusted z-score is inactive: -0.709.
